Data: the supplement of paper PMC10849652
Some of the results follow.

The chains behind the UniProt entries cited, without tags or fusion partners. Where a name states a change or a piece, a line headed by the entry shows the natural chain unless it says otherwise.
UniProt Q9H0U3: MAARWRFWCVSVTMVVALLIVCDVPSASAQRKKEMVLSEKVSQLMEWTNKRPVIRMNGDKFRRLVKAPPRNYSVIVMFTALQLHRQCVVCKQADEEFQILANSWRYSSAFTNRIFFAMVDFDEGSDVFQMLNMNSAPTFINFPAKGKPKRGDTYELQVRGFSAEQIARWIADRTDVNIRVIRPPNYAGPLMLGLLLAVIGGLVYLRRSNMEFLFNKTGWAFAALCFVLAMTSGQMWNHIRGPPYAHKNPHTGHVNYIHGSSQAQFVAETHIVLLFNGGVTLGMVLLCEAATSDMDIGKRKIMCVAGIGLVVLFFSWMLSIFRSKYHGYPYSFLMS
UniProt Q16706: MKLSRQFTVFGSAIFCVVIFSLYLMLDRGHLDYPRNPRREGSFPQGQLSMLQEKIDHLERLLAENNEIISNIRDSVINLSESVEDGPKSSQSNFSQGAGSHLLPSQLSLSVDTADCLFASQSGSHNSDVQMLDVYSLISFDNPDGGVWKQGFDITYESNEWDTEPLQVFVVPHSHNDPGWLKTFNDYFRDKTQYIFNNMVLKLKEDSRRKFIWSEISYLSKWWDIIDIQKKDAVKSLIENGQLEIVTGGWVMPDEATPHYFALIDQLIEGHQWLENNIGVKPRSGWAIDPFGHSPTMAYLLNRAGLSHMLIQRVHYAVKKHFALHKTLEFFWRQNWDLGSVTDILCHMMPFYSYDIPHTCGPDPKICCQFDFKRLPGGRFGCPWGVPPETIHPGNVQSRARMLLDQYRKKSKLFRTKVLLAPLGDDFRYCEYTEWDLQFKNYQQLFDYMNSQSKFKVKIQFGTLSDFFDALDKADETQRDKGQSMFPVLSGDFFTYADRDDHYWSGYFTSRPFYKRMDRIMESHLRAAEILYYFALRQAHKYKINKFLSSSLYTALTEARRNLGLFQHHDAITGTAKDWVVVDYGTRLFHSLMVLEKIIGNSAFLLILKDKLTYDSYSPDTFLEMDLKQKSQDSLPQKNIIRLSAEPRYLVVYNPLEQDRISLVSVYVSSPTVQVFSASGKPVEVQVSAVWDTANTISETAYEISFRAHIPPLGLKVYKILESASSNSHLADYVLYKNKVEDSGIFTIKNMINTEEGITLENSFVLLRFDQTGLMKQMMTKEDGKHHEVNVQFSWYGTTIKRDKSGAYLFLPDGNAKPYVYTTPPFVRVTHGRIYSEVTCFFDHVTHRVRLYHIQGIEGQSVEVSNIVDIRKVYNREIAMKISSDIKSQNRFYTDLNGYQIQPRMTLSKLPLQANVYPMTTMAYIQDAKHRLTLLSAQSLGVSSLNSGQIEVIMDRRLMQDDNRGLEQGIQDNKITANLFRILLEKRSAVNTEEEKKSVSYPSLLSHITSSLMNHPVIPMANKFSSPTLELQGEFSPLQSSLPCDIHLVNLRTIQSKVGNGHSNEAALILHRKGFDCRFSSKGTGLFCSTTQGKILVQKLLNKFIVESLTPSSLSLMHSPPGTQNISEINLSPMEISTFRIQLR
UniProt Q9BQ69: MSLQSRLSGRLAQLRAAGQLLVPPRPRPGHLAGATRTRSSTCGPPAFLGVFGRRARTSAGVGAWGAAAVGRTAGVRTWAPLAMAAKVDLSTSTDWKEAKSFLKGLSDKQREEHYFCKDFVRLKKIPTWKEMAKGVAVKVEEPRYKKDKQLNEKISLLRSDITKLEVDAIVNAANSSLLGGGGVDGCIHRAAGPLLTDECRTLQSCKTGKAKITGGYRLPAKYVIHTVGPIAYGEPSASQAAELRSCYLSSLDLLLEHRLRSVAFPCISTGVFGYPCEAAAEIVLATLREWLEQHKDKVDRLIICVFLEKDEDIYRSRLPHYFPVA
UniProt Q66K74: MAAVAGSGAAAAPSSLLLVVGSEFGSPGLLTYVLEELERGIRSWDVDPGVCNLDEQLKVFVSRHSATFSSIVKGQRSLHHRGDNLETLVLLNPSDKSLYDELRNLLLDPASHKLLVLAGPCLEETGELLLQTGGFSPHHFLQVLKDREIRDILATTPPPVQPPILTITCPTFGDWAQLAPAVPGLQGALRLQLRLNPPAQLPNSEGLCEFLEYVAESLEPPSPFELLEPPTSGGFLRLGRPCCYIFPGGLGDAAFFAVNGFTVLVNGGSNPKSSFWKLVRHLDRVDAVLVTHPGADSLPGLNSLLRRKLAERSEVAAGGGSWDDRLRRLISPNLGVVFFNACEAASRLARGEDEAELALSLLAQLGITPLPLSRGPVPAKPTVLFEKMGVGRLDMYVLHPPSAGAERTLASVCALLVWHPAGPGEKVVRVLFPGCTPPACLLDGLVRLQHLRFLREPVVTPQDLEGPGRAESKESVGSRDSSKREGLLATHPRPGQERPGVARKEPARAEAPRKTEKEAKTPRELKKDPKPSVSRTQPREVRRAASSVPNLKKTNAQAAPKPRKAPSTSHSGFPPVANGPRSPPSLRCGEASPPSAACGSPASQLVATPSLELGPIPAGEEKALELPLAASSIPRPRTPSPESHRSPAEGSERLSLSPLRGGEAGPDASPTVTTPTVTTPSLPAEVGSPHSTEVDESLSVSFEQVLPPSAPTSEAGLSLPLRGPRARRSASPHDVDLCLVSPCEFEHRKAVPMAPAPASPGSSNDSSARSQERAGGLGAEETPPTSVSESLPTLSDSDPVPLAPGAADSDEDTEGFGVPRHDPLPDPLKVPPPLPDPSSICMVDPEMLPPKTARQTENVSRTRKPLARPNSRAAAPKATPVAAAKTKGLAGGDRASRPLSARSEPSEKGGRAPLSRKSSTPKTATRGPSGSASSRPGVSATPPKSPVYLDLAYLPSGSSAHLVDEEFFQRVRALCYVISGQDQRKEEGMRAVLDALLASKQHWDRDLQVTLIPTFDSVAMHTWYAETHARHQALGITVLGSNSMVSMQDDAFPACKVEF
UniProt Q9NTJ4: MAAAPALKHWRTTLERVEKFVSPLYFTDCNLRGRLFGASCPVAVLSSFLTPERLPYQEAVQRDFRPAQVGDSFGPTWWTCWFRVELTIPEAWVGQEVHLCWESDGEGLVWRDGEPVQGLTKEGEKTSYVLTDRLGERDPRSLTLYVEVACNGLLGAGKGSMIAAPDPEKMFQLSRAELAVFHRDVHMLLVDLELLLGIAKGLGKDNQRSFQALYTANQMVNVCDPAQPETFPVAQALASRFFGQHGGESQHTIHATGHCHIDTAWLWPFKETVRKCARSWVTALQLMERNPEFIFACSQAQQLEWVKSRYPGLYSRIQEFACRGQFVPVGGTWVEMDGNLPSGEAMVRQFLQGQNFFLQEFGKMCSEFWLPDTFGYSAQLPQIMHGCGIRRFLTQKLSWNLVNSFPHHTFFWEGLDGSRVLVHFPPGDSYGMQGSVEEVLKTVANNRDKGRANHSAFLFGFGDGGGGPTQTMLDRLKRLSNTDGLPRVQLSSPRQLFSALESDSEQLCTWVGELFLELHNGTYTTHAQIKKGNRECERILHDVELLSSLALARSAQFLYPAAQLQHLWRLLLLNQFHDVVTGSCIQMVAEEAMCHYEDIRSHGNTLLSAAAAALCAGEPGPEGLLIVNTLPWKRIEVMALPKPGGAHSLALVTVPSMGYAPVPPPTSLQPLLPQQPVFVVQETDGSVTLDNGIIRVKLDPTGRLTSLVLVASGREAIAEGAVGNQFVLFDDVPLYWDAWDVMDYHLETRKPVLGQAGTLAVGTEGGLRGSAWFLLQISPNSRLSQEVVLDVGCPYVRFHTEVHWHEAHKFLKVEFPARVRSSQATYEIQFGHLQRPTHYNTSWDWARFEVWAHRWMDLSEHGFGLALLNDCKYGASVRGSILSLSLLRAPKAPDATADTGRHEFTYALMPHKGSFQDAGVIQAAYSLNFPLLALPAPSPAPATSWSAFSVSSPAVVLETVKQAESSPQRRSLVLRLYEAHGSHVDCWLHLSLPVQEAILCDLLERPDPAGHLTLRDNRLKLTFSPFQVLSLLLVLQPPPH
UniProt Q9Y4Z0: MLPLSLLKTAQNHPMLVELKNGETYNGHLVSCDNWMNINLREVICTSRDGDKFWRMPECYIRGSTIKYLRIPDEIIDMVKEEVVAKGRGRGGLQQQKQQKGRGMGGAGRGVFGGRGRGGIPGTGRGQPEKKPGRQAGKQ
UniProt Q9UK45: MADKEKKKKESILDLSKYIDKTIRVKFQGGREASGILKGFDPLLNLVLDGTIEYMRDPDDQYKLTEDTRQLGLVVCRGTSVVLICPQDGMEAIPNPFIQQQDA
UniProt O95777: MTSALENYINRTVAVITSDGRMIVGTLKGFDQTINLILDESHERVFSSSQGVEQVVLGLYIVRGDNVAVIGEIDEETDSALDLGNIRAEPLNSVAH
UniProt P45985: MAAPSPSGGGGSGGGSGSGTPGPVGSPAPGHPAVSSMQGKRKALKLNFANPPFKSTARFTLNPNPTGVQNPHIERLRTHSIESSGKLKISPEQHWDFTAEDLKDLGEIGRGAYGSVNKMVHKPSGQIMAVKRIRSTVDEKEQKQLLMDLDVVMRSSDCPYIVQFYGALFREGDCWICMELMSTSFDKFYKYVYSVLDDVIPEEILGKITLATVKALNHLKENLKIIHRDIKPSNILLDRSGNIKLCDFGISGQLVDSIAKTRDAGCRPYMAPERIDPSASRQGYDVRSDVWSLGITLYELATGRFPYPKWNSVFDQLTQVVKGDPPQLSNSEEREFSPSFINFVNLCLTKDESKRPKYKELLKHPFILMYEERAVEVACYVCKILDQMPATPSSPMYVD
UniProt Q9NQ48: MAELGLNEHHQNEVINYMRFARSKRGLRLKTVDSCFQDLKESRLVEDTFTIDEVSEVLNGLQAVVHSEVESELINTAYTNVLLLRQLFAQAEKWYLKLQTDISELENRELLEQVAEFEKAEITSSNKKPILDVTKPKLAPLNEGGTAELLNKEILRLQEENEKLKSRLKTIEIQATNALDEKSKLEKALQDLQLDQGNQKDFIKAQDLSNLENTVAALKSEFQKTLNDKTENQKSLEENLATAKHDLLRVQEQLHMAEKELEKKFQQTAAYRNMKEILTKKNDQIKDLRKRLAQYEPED
UniProt Q96S90: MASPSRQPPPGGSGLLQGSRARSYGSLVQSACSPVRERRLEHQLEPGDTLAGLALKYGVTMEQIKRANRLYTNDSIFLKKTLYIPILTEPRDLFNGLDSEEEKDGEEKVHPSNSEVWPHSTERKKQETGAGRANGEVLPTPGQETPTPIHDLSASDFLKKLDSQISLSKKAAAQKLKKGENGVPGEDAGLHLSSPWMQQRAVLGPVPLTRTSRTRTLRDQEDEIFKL
UniProt O00462: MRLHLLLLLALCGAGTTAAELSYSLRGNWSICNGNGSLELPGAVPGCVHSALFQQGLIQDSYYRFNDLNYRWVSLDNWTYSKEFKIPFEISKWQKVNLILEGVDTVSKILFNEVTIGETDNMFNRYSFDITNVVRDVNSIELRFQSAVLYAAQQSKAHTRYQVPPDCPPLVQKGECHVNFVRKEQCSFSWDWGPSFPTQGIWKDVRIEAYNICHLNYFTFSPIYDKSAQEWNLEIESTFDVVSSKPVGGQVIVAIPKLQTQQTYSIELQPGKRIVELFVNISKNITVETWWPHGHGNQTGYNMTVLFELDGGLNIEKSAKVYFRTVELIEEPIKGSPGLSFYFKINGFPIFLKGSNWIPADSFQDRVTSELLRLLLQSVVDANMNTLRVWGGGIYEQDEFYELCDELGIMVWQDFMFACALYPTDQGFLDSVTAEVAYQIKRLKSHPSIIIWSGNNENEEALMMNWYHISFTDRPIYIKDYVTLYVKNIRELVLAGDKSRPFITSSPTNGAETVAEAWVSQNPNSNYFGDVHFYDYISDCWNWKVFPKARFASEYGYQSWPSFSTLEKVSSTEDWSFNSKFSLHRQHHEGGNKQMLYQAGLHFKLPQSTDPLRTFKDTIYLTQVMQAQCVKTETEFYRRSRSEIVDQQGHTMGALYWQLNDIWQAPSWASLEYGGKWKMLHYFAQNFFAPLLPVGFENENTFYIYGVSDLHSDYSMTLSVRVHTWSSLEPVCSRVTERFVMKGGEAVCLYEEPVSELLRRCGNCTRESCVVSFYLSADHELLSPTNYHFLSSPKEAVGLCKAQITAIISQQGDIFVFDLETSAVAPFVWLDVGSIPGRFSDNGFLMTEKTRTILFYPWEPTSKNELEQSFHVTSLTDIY
UniProt P55145: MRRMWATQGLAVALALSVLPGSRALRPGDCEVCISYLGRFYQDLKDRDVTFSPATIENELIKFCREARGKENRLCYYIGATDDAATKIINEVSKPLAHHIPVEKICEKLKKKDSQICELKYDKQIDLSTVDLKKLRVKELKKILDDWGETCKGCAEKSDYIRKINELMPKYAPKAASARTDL
UniProt Q9NX47: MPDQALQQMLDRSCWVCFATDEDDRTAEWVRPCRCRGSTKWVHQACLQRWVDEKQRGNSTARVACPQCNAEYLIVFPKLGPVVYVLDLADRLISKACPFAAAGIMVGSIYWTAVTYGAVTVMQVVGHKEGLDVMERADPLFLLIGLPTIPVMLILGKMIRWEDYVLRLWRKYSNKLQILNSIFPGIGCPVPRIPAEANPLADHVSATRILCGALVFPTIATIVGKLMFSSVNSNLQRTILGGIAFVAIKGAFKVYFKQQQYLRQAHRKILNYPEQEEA

These targets were tested with CC[C@@H]1C(=O)N(C)c2cnc(Nc3ccc(C(=O)NC4CCN(C)CC4)cc3OC)nc2N1C1CCCC1 (assay: log2 fold change, soluble protein after heating vs DMSO (PISA); higher = thermal stabilisation; K562 cells, 10 uM, 30 min; active = over 0.2 and 3.5 SD of the protein, either way, in both replicates (recomputed)).
Summary of the method: (§1)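 Values are thermal stability changes relative to control samples and are taken from duplicates. They are stated as log2 fold changes. Before quantification by TMTpro 16plex LC-MS/MS with equalised channel sums, K562 cells at 2×10^6 cells/mL were treated with 10 μM compound for 30 min, heated in aliquots for 3 min across 48°C-58°C, pooled, extracted in PBS with 0.5% NP-40 at 4°C, and centrifuged at 21,000xg for 90 min to give the soluble supernatant.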
In the case of MAGT1 (UniProt Q9H0U3), the log2 fold change was inactive: 0.076.
LRRFIP2 (UniProt Q9Y608) was tested, and the log2 fold change was inactive: 0.067.
In the case of MAN2A1 (UniProt Q16706), the log2 fold change was inactive: 0.016.
For MAPRE2 (UniProt Q15555), the log2 fold change was inactive: -0.028.
In the case of MACROD1 (UniProt Q9BQ69), the log2 fold change was inactive: -0.033.
For LYRM7 (UniProt Q5U5X0), the log2 fold change was inactive: 0.013.
For MAGEC1 (UniProt O60732), the log2 fold change was inactive: -0.019.
MAP1S (UniProt Q66K74) was tested, and the log2 fold change was inactive: -0.046.
With MAN2C1 isoform 4 (UniProt Q9NTJ4) the log2 fold change was inactive: 0.075.
With LSM4 (UniProt Q9Y4Z0) the log2 fold change was inactive: 0.039.
In the case of LSM7 (UniProt Q9UK45), the log2 fold change was inactive: 0.043.
LSM8 (UniProt O95777) was tested, and the log2 fold change was inactive: 0.064.
For MAP2K4 isoform 2 (UniProt P45985), the log2 fold change was inactive: -0.086.
MAN2A2 (UniProt P49641) was tested, and the log2 fold change was inactive: 0.058.
In the case of LZTFL1 (UniProt Q9NQ48), the log2 fold change was inactive: -0.006.
For MACF1 (UniProt H3BQK9), the log2 fold change was inactive: -0.067.
In the case of LYSMD1 (UniProt Q96S90), the log2 fold change was inactive: -0.045.
With MAP4 isoform 5 (UniProt P27816) the log2 fold change was inactive: -0.001.
MAN2B1 (UniProt O00754) was tested, and the log2 fold change was inactive: -0.015.
In the case of MAP1B (UniProt P46821), the log2 fold change was inactive: 0.057.
With MAPRE1 (UniProt Q15691) the log2 fold change was inactive: -0.091.
In the case of MACF1 (UniProt Q9UPN3), the log2 fold change was inactive: 0.062.
LTF (UniProt P02788) was tested, and the log2 fold change was inactive: -0.042.
With MAGEB2 (UniProt O15479) the log2 fold change was inactive: -0.031.
With MANBA (UniProt O00462) the log2 fold change was inactive: -0.006.
With MANF (UniProt P55145) the log2 fold change was inactive: 0.012.
In the case of MARCHF3 (UniProt Q86UD3), the log2 fold change was inactive: 0.116.
For LYRM1 (UniProt O43325), the log2 fold change was inactive: 0.23.
In the case of MAP7 isoform 7 (UniProt Q14244), the log2 fold change was inactive: 0.361.
MARCHF5 (UniProt Q9NX47) was tested, and the log2 fold change was inactive: 0.017.
In the case of MAP4K2 (UniProt Q12851), the log2 fold change was inactive: -0.044.
With LTA4H (UniProt P09960) the log2 fold change was inactive: 0.016.

These targets were tested with CC[C@@H]1C(=O)N(C)c2cnc(Nc3ccc(C(=O)N[C@H]4CC[C@H](N5CCN(CC6CC6)CC5)CC4)cc3OC)nc2N1C(C)C [volasertib] in the same assay as above.
Summary of the method: as §1
MAGT1 (UniProt Q9H0U3) was tested, and the log2 fold change was inactive: -0.002.
For LRRFIP2 (UniProt Q9Y608), the log2 fold change was inactive: 0.08.
In the case of MAN2A1 (UniProt Q16706), the log2 fold change was inactive: -0.008.
In the case of MAPRE2 (UniProt Q15555), the log2 fold change was inactive: -0.245.
For MACROD1 (UniProt Q9BQ69), the log2 fold change was inactive: -0.27.
With LYRM7 (UniProt Q5U5X0) the log2 fold change was inactive: -0.008.
MAGEC1 (UniProt O60732) was tested, and the log2 fold change was inactive: -0.296.
In the case of MAP1S (UniProt Q66K74), the log2 fold change was inactive: -0.096.
In the case of MAN2C1 isoform 4 (UniProt Q9NTJ4), the log2 fold change was inactive: 0.059.
With LSM4 (UniProt Q9Y4Z0) the log2 fold change was inactive: 0.091.
With LSM7 (UniProt Q9UK45) the log2 fold change was inactive: 0.065.
In the case of LSM8 (UniProt O95777), the log2 fold change was inactive: 0.084.
With MAP2K4 isoform 2 (UniProt P45985) the log2 fold change was inactive: -0.11.
With MAN2A2 (UniProt P49641) the log2 fold change was inactive: -0.063.
In the case of LZTFL1 (UniProt Q9NQ48), the log2 fold change was inactive: -0.017.
In the case of MACF1 (UniProt H3BQK9), the log2 fold change was inactive: -0.098.
With LYSMD1 (UniProt Q96S90) the log2 fold change was inactive: -0.031.
MAP4 isoform 5 (UniProt P27816) was tested, and the log2 fold change was inactive: -0.046.
For MAN2B1 (UniProt O00754), the log2 fold change was inactive: 0.081.
MAP1B (UniProt P46821) was tested, and the log2 fold change was inactive: 0.097.
For MAPRE1 (UniProt Q15691), the log2 fold change was inactive: -0.175.
In the case of MACF1 (UniProt Q9UPN3), the log2 fold change was inactive: -0.05.
LTF (UniProt P02788) was tested, and the log2 fold change was inactive: -0.003.
For MAGEB2 (UniProt O15479), the log2 fold change was inactive: 0.302.
MANBA (UniProt O00462) was tested, and the log2 fold change was inactive: -0.049.
For MANF (UniProt P55145), the log2 fold change was inactive: 0.065.
With MARCHF3 (UniProt Q86UD3) the log2 fold change was inactive: 0.011.
In the case of LYRM1 (UniProt O43325), the log2 fold change was inactive: -0.009.
For MAP7 isoform 7 (UniProt Q14244), the log2 fold change was inactive: 0.392.
In the case of MARCHF5 (UniProt Q9NX47), the log2 fold change was inactive: 0.036.
For MAP4K2 (UniProt Q12851), the log2 fold change was inactive: -0.093.
For LTA4H (UniProt P09960), the log2 fold change was inactive: -0.064.

These targets were tested with CC[C@H](C)N1C=C(C2=C(C=C(C=C21)C3=CN=C(C=C3)N4CCNCC4)C(=O)NCC5=C(C=C(NC5=O)C)C)C in the same assay as above.
Summary of the method: as §1
With MAGT1 (UniProt Q9H0U3) the log2 fold change was inactive: 0.003.
LRRFIP2 (UniProt Q9Y608) was tested, and the log2 fold change was inactive: 0.007.
For MAN2A1 (UniProt Q16706), the log2 fold change was inactive: -0.001.
MAPRE2 (UniProt Q15555) was tested, and the log2 fold change was inactive: 0.109.
For MACROD1 (UniProt Q9BQ69), the log2 fold change was inactive: 0.067.
LYRM7 (UniProt Q5U5X0) was tested, and the log2 fold change was inactive: 0.018.
MAGEC1 (UniProt O60732) was tested, and the log2 fold change was inactive: 0.023.
In the case of MAP1S (UniProt Q66K74), the log2 fold change was inactive: 0.044.
With MAN2C1 isoform 4 (UniProt Q9NTJ4) the log2 fold change was inactive: -0.113.
For LSM4 (UniProt Q9Y4Z0), the log2 fold change was inactive: -0.033.
For LSM7 (UniProt Q9UK45), the log2 fold change was inactive: -0.082.
LSM8 (UniProt O95777) was tested, and the log2 fold change was inactive: -0.043.
For MAP2K4 isoform 2 (UniProt P45985), the log2 fold change was inactive: 0.015.
With MAN2A2 (UniProt P49641) the log2 fold change was inactive: 0.007.
LZTFL1 (UniProt Q9NQ48) was tested, and the log2 fold change was inactive: 0.014.
MACF1 (UniProt H3BQK9) was tested, and the log2 fold change was inactive: 0.134.
LYSMD1 (UniProt Q96S90) was tested, and the log2 fold change was inactive: 0.073.
With MAP4 isoform 5 (UniProt P27816) the log2 fold change was inactive: -0.258.
With MAN2B1 (UniProt O00754) the log2 fold change was inactive: 0.029.
With MAP1B (UniProt P46821) the log2 fold change was inactive: -0.018.
With MAPRE1 (UniProt Q15691) the log2 fold change was inactive: 0.064.
MACF1 (UniProt Q9UPN3) was tested, and the log2 fold change was inactive: 0.036.
LTF (UniProt P02788) was tested, and the log2 fold change was inactive: 0.539.
For MAGEB2 (UniProt O15479), the log2 fold change was inactive: 0.052.
With MANBA (UniProt O00462) the log2 fold change was inactive: 0.01.
With MANF (UniProt P55145) the log2 fold change was inactive: -0.033.
MARCHF3 (UniProt Q86UD3) was tested, and the log2 fold change was inactive: 0.018.
For LYRM1 (UniProt O43325), the log2 fold change was inactive: 0.057.
MAP7 isoform 7 (UniProt Q14244) was tested, and the log2 fold change was inactive: 0.043.
With MARCHF5 (UniProt Q9NX47) the log2 fold change was inactive: -0.02.
With MAP4K2 (UniProt Q12851) the log2 fold change was inactive: 0.298.
With LTA4H (UniProt P09960) the log2 fold change was inactive: 0.033.
